These results are taken from the supplement of paper PMC10470496.

Where a name gives a salt, the structure may show the parent alone. Some of the results follow. Repeats are few or missing, and single values can be far off.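 The three strains are clinical Candida auris isolates from the CDC resistance isolate bank, from clades III, IV and I, grown in RPMI-1640 at 35°C. Growth is background-corrected OD600 relative to vehicle-only wells on the same plate; a hit meant over 50% inhibition in at least two strains plus a plate-corrected B-score above 0.1.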

Among the test systems are C. auris AR-384; C. auris AR-386; C. auris AR-387.
What all share (experiment): growth relative to vehicle control (OD600 ratio) (fraction); higher = less inhibition
What all share (conditions): 24 h

For the molecule `C[C@@H]1O[C@@H]1P(=O)(O)O` [Fosfomycin calcium], the growth with C. auris AR-384 (1 µM) was 0.66; in the assay with C. auris AR-384 (10 µM), 0.85; in the assay with C. auris AR-386 (1 µM), 0.87; with C. auris AR-386 (10 µM), 0.95; in the assay on C. auris AR-387 (1 µM), 1.06; in the assay on C. auris AR-387 (10 µM), 0.6.
Take `Cc1onc(-c2ccccc2)c1C(=O)N[C@@H]1C(=O)N2[C@@H]1SC(C)(C)[C@@H]2C(=O)O` [Oxacillin sodium monohydrate]: the growth with C. auris AR-384 (1 µM) worked out at 1.33; with C. auris AR-384 (10 µM), 1.39; with C. auris AR-386 (1 µM) it was 1.11; in the assay with C. auris AR-386 (10 µM), 0.82; in the assay on C. auris AR-387 (1 µM) it was 0.84; in the assay with C. auris AR-387 (10 µM), 1.24.
As to `CC1CCC(C(C)C)C(O)C1` (single isomer, unassigned; (-)) [(-)-Menthol], the growth is 1.16 in the assay on C. auris AR-384 (1 µM); 1.09 with C. auris AR-384 (10 µM); 0.98 with C. auris AR-386 (1 µM); 1.17 in the assay with C. auris AR-386 (10 µM); 0.8 in the assay on C. auris AR-387 (1 µM); 0.99 in the assay with C. auris AR-387 (10 µM).
Regarding `CN1CCc2nc(C(=O)N[C@@H]3C[C@@H](C(=O)N(C)C)CC[C@@H]3NC(=O)C(=O)Nc3ccc(Cl)cn3)sc2C1` [Edoxaban], the growth in the assay with C. auris AR-384 (1 µM) worked out at 0.87; with C. auris AR-384 (10 µM) it was 0.69; in the assay on C. auris AR-386 (1 µM), 0.84; in the assay on C. auris AR-386 (10 µM) it was 0.66; in the assay with C. auris AR-387 (1 µM) it was 0.74; with C. auris AR-387 (10 µM) it was 0.72.
Take `CCC[C@H](NC(=O)[C@@H]1[C@H]2CCC[C@H]2CN1C(=O)[C@@H](NC(=O)[C@@H](NC(=O)c1cnccn1)C1CCCCC1)C(C)(C)C)C(=O)C(=O)NC1CC1` [Telaprevir (VX-950)]: the growth came out at 1.14 in the assay on C. auris AR-384 (1 µM); 0.77 with C. auris AR-384 (10 µM); 1.14 in the assay on C. auris AR-386 (1 µM); 1.11 in the assay with C. auris AR-386 (10 µM); 0.81 in the assay on C. auris AR-387 (1 µM); 0.98 with C. auris AR-387 (10 µM).
As to `C[N+]1(C)[C@@H]2C[C@@H](OC(=O)C(O)(c3cccs3)c3cccs3)C[C@H]1[C@@H]1O[C@@H]12` [Tiotropium Bromide hydrate], the growth with C. auris AR-384 (1 µM) is 0.86; in the assay on C. auris AR-384 (10 µM), 0.79; in the assay with C. auris AR-386 (1 µM), 0.87; with C. auris AR-386 (10 µM), 0.81; in the assay on C. auris AR-387 (1 µM), 0.7; with C. auris AR-387 (10 µM), 0.88.
As for `Cc1cccc(C)c1NC(=O)C1CCCCN1C` (stereo not given) [Mepivacaine HCl], the growth in the assay with C. auris AR-384 (1 µM) turned out to be 0.72; with C. auris AR-384 (10 µM) it was 0.84; with C. auris AR-386 (1 µM), 0.86; with C. auris AR-386 (10 µM), 0.64; in the assay on C. auris AR-387 (1 µM), 0.78; in the assay on C. auris AR-387 (10 µM), 0.93.
Regarding `CCOC(=O)N1CCC(=C2c3ccc(Cl)cc3CCc3cccnc32)CC1` [Loratadine], the growth in the assay on C. auris AR-384 (1 µM) was found to be 1.33; in the assay with C. auris AR-384 (10 µM) it was 0.84; in the assay with C. auris AR-386 (1 µM), 0.88; with C. auris AR-386 (10 µM), 1.17; in the assay on C. auris AR-387 (1 µM), 1.13; in the assay on C. auris AR-387 (10 µM), 1.19.
As to `C=CC(=O)Nc1cccc(Nc2nc(Nc3ccc(N4CCN(C(C)=O)CC4)cc3OC)ncc2C(F)(F)F)c1` [Rociletinib (CO-1686, AVL-301)], the growth in the assay on C. auris AR-384 (1 µM) turned out to be 0.78; with C. auris AR-384 (10 µM), 0.84; in the assay on C. auris AR-386 (1 µM), 0.75; in the assay with C. auris AR-386 (10 µM) it was 0.75; in the assay with C. auris AR-387 (1 µM), 0.74; with C. auris AR-387 (10 µM), 0.9.
Regarding `COc1cccc(-c2ccc(NC(=O)C3=C(C(=O)O)CCC3)c(F)c2)c1` [Vidofludimus], the growth stood at 1.18 in the assay on C. auris AR-384 (1 µM); 0.97 in the assay with C. auris AR-384 (10 µM); 1.1 in the assay with C. auris AR-386 (1 µM); 0.99 in the assay with C. auris AR-386 (10 µM); 0.75 in the assay on C. auris AR-387 (1 µM); 0.69 with C. auris AR-387 (10 µM).
Take `CC(C)(OCc1nn(Cc2ccccc2)c2ccccc12)C(=O)O` [Bindarit]: the growth in the assay with C. auris AR-384 (1 µM) came to 0.95; in the assay with C. auris AR-384 (10 µM), 0.86; in the assay on C. auris AR-386 (1 µM), 0.95; in the assay with C. auris AR-386 (10 µM), 1.1; in the assay on C. auris AR-387 (1 µM) it was 1.13; in the assay on C. auris AR-387 (10 µM), 0.97.
As to `CC(=O)O[C@]1(C(C)=O)CC[C@H]2[C@@H]3C[C@H](C)C4=CC(=O)C=C[C@]4(C)[C@@]3(F)[C@@H](O)C[C@@]21C` [Fluorometholone Acetate], the growth with C. auris AR-384 (1 µM) turned out to be 1.05; in the assay on C. auris AR-384 (10 µM), 1.3; in the assay with C. auris AR-386 (1 µM), 1.22; in the assay with C. auris AR-386 (10 µM), 1.32; with C. auris AR-387 (1 µM) it was 1.27; with C. auris AR-387 (10 µM), 1.18.
On to `CN1CCN(c2ccc3nc(-c4c(N)c5c(F)cccc5[nH]c4=O)[nH]c3c2)CC1` [Dovitinib (TKI-258, CHIR-258)], for which the growth in the assay on C. auris AR-384 (1 µM) amounted to 0.69; with C. auris AR-384 (10 µM), 0.59; with C. auris AR-386 (1 µM), 0.9; in the assay on C. auris AR-386 (10 µM), 0.88; in the assay on C. auris AR-387 (1 µM) it was 0.78; in the assay on C. auris AR-387 (10 µM) it was 0.68.
For the molecule `Cc1nc2n(c(=O)c1CCN1CCC(c3noc4cc(F)ccc34)CC1)CCCC2O` (stereo not given) [Paliperidone], the growth in the assay on C. auris AR-384 (1 µM) came out at 1.2; in the assay on C. auris AR-384 (10 µM) it was 1.06; with C. auris AR-386 (1 µM) it was 1.12; in the assay on C. auris AR-386 (10 µM), 0.94; in the assay with C. auris AR-387 (1 µM) it was 0.78; in the assay with C. auris AR-387 (10 µM), 0.84.
As for `CC(C)Cn1cnc2c(N)nc3ccccc3c21` [Imiquimod], the growth was 0.8 in the assay with C. auris AR-384 (1 µM); 1.29 with C. auris AR-384 (10 µM); 1.12 in the assay with C. auris AR-386 (1 µM); 0.98 in the assay on C. auris AR-386 (10 µM); 0.9 in the assay with C. auris AR-387 (1 µM); 0.96 in the assay on C. auris AR-387 (10 µM).
For `CNC(=O)c1cc(Oc2ccc(NC(=O)Nc3ccc(Cl)c(C(F)(F)F)c3)cc2)ccn1` [Sorafenib Tosylate], the growth was determined as 1.36 with C. auris AR-384 (1 µM); 0.82 in the assay with C. auris AR-384 (10 µM); 0.76 in the assay on C. auris AR-386 (1 µM); 0.8 with C. auris AR-386 (10 µM); 0.88 in the assay with C. auris AR-387 (1 µM); 0.92 with C. auris AR-387 (10 µM).
`CCN(CC)CCNC(=O)c1c(C)[nH]c(/C=C2\C(=O)Nc3ccc(F)cc32)c1C` [Sunitinib]: the growth in the assay with C. auris AR-384 (1 µM) was 0.82; in the assay on C. auris AR-384 (10 µM) it was 0.62; in the assay on C. auris AR-386 (1 µM), 0.55; in the assay with C. auris AR-386 (10 µM) it was 0.73; in the assay with C. auris AR-387 (1 µM), 0.74; in the assay on C. auris AR-387 (10 µM) it was 0.77.
For `O=C(/C=C\n1cnc(-c2cc(C(F)(F)F)cc(C(F)(F)F)c2)n1)NNc1cnccn1` [Selinexor (KPT-330)], the growth in the assay with C. auris AR-384 (1 µM) was 0.93; in the assay with C. auris AR-384 (10 µM), 1.08; in the assay with C. auris AR-386 (1 µM), 0.94; in the assay with C. auris AR-386 (10 µM), 0.81; with C. auris AR-387 (1 µM) it was 1.13; in the assay with C. auris AR-387 (10 µM), 0.9.
On to `COc1cc2nccc(Oc3ccc(NC(=O)C4(C(=O)Nc5ccc(F)cc5)CC4)cc3)c2cc1OC` [Cabozantinib malate (XL184)], for which the growth in the assay with C. auris AR-384 (1 µM) amounted to 0.75; with C. auris AR-384 (10 µM), 0.78; in the assay with C. auris AR-386 (1 µM), 0.79; in the assay with C. auris AR-386 (10 µM), 0.85; in the assay on C. auris AR-387 (1 µM), 0.74; with C. auris AR-387 (10 µM), 0.76.
As for `CN1CCOC(c2ccccc2)c2ccccc2C1` (stereo not given) [Nefopam HCl], the growth in the assay on C. auris AR-384 (1 µM) is 0.52; in the assay on C. auris AR-384 (10 µM) it was 0.49; in the assay on C. auris AR-386 (1 µM), 0.72; with C. auris AR-386 (10 µM), 0.85; with C. auris AR-387 (1 µM) it was 0.73; in the assay on C. auris AR-387 (10 µM) it was 0.72.
